Measured values as given in patent publication US20020065227A1, “Charged compounds comprising a nucleic acid binding moiety and uses therefor” (priority 2000, published 2002).
For at least one compound, name, drawing or mass did not settle the structure. Some results were stated once for a whole list of compounds, not compound by compound.

Tests used:
[1] = test system: AGTACT; assay: DNase I footprint titration, AGTACT site; assay type: binding
[2] = test system: dsDNA restriction fragment; assay: dsDNA binding, DNase I footprinting on restriction fragment; settings: AGTACT versus mismatch sites; range stated for the four compounds together

Row | SMILES | Affinity for the AGTACT site, span over the four compounds ([1]; restriction fragment with over 300 different 6-bp sites, range stated for V-u, V-c, V-b, V-a together) | Specificity against the single base pair mismatch sites ACTACT, ATTACT, and AATACT [2] | DNA-binding affinity relative to comparison compound XII ([1]; AGTACT site, fold higher than XII)
1 | CN(C)CCCNC(=O)c1cc(NC(=O)c2cc(NC(=O)c3cc(NC(=O)c4nsc(NCCCN)c4Cl)cn3C)cn2C)cn1C [V-b] | 1×10^11 M^−1 to 3×10^9 | 200-fold to 11-fold | –
2 | CN(C)CCCNC(=O)CCNC(=O)c1cc(NC(=O)c2cc(NC(=O)c3cc(NC(=O)c4nc(NC(=O)CCCNC(=O)c5cc(NC(=O)c6cc(NC(=O)c7cc(NC(=O)c8nsc(NCCCN(C)C)c8Cl)cn7C)cn6C)cn5C)cn4C)cn3C)cn2C)cn1C [VI-b] | – | – | 9-30 fold
